The target of this assay is T1, Mfn1-flag, Q8IWA4.
T1 chain: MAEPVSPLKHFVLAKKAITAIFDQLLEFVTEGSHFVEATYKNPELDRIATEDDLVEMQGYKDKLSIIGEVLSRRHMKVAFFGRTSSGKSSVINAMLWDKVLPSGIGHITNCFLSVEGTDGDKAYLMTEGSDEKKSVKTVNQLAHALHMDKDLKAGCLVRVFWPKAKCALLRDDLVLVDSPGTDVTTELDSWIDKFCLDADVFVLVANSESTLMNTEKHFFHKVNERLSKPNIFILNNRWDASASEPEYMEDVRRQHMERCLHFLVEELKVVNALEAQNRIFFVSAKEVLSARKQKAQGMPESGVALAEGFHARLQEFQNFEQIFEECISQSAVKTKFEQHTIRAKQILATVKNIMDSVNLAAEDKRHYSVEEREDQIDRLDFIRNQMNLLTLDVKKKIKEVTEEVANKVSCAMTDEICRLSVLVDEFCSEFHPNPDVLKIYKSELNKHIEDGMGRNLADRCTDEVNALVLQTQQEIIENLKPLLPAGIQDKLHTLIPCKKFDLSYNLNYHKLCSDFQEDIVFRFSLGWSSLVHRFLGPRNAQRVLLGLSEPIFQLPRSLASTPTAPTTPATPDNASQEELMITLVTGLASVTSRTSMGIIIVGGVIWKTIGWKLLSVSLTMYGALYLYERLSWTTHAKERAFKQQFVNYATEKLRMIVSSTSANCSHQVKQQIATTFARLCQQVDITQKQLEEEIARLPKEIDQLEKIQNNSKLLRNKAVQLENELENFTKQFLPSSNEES
Nature of the assay: co-IP; HEK293 cells cotransfected with Mfn1-flag and Mfn2-myc with or without DAP3-flag for 24 h; lysates precipitated with anti-flag beads; western blot; also repeated with 200 µg purified recombinant DAP3 added to lysate containing 400 µg total protein. To be noted: remark: other sources report otherwise. Background: Immunoblotting shows a protein as a band on a membrane.

These are yes or no findings as the source states them, for the method shown. In cells and extracts the contact can be indirect. Some binding calls cover weakened binding; strength is not graded here. Tags and fused reporters may be left off the sequences shown.

B1: Mfn2-myc, O95140 1-757 (protein)
chain: MSLLFSRCNSIVTVKKNKRHMAEVNASPLKHFVTAKKKINGIFEQLGAYIQESATFLEDTYRNAELDPVTTEEQVLDVKGYLSKVRGISEVLARRHMKVAFFGRTSNGKSTVINAMLWDKVLPSGIGHTTNCFLRVEGTDGHEAFLLTEGSEEKRSAKTVNQLAHALHQDKQLHAGSLVSVMWPNSKCPLLKDDLVLMDSPGIDVTTELDSWIDKFCLDADVFVLVANSESTLMQTEKHFFHKVSERLSRPNIFILNNRWDASASEPEYMEEVRRQHMERCTSFLVDELGVVDRSQAGDRIFFVSAKEVLNARIQKAQGMPEGGGALAEGFQVRMFEFQNFERRFEECISQSAVKTKFEQHTVRAKQIAEAVRLIMDSLHMAAREQQVYCEEMREERQDRLKFIDKQLELLAQDYKLRIKQITEEVERQVSTAMAEEIRRLSVLVDDYQMDFHPSPVVLKVYKNELHRHIEEGLGRNMSDRCSTAITNSLQTMQQDMIDGLKPLLPVSVRSQIDMLVPRQCFSLNYDLNCDKLCADFQEDIEFHFSLGWTMLVNRFLGPKNSRRALMGYNDQVQRPIPLTPANPSMPPLPQGSLTQEEFMVSMVTGLASLTSRTSMGILVVGGVVWKAVGWRLIALSFGLYGLLYVYERLTWTTKAKERAFKRQFVEHASEKLQLVISYTGSNCSHQVQQELSGTFAHLCQQVDVTRENLEQEIAAMNKKIEVLDSLQSKAKLLRNKAGWLDSELNMFTHQYLQPSR
As for B1, the binding result is “binds”.

The record behind these values is paper PMC12064944.
